Here are results for one substance from US20040223972A1 (FUNCTIONAL GENETICS, published 2004).

Amino acid sequences for entries named in this document (tags omitted). A change or cut given only in a name is not applied to a line headed by its entry.
UniProt Q99816: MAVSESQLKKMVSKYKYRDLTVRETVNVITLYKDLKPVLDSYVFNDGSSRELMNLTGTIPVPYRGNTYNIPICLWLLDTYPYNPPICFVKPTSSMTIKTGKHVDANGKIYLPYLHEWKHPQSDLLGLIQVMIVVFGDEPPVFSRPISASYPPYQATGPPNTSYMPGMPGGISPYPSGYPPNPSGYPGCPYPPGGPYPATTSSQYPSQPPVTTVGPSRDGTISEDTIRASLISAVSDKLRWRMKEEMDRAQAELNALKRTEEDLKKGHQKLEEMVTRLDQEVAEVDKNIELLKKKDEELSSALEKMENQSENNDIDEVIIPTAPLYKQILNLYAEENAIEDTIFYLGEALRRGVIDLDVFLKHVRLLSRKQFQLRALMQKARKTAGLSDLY
UniProt Q05128: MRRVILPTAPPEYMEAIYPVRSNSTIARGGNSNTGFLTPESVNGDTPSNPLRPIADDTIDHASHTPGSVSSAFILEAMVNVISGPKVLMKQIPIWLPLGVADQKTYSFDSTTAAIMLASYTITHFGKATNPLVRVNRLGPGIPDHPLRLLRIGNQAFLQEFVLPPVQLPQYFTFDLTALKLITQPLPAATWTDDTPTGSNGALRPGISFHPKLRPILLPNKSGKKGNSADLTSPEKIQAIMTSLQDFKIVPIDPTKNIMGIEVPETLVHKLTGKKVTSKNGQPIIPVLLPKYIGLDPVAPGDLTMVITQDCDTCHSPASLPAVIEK

In this assay the target is Myc tagged TSG101 full length (FL) (Homo sapiens (Human)) (UniProt Q99816). Kind of assay: co-immunoprecipitation with anti-Myc antibody from transfected 293T cells.

These are yes or no findings as the source states them, for the method shown. Binding seen in cells or lysates may run through a third protein. Some results given as binding are weak or reduced against the parent protein; the word gives no strength.

With “Ebola VP40 (1-326) (from UniProt Q05128 1-326)”, the binding result is reported as “binds”.
